According to article PMC12974487, “Inhibition of FicD-mediated AMPylation and deAMPylation by isoprenoid diphosphates” (Proceedings of the National Academy of Sciences of the …, 2026):
No constants are given. Whether binding was seen depends on the method and setting. Some entries that bind do so weakly or less than the wild type.

Target: wild-type human FicD, soluble ER luminal domain (residues 105 to 458) (human) (UniProt Q9BVA6)
Test: SEC; elution volumes of the purified FicD constructs compared (SI Appendix, Fig. S1C); column and buffer not shown; both purified

binding: binds
B1: wild-type human FicD, soluble ER luminal domain (residues 105 to 458) (domain or fragment, UniProt Q9BVA6 105-458)
chain: EARAALNQALEMKRQGKREKAQKLFMHALKMDPDFVDALTEFGIFSEEDKDIIQADYLYTRALTISPYHEKALVNRDRTLPLVEEIDQRYFSIIDSKVKKVMSIPKGNSALRRVMEETYYHHIYHTVAIEGNTLTLSEIRHILETRYAVPGKSLEEQNEVIGMHAAMKYINTTLVSRIGSVTISDVLEIHRRVLGYVDPVEAGRFRTTQVLVGHHIPPHPQDVEKQMQEFVQWLNSEEAMNLHPVEFAALAHYKLVYIHPFIDGNGRTSRLLMNLILMQAGYPPITIRKEQRSDYYHVLEAANEGDVRPFIRFIAKCTETTLDTLLFATTEYSVALPEAQPNHSGFKETLPVKP
